Experimental data: PubChem BioAssay AID652272 (Drosophila RNAi Screening Center, 2013)

Screen: 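Genome-wide knock-down search for components of Hedgehog signalling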 (primary screen)
System: Drosophila clone 8 (Cl8) cells
Knock-down reagent: long dsRNA against Drosophila genes
Read-out: 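Firefly light from a Hedgehog-responsive ptc promoter reporter and Renilla reference light, both read on a plate reader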
Reading the numbers: firefly Hh reporter signal: higher = more ptc reporter light; Renilla reference signal: higher = more Renilla control light
Call rule: 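Hit when the z-score averaged over two replicates is under -2 or over +3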
Calls: active = hit: reporter lowered or raised; inactive = not a hit
In all, the deposit lists about 21,000 reagents; this is a random part of those that have a named target and a result. In the full data, 503 (2.4%) got an active call. 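Raw plate light values, not normalised; calls rest on replicate z-scores that were not deposited; hits include reporter decreases as well as increases.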 A number with no mark means an inactive call. Reagent sequences are not shown. Not stated in the record: the amount of reagent, the time to read-out.

What did the screen give for CG14357 [DRSC14820]?
firefly Hh reporter signal, replicate 1: 70995; firefly Hh reporter signal, replicate 2: 85344; Renilla reference signal, replicate 1: 1258; Renilla reference signal, replicate 2: 1456

How did the screen score GluRIIB (Glutamate receptor IIB) [DRSC03335]?
firefly Hh reporter signal, replicate 1: 91972; firefly Hh reporter signal, replicate 2: 69552; Renilla reference signal, replicate 1: 1990; Renilla reference signal, replicate 2: 5205

How did the screen score CG14926 [DRSC02409]?
firefly Hh reporter signal, replicate 1: 1.51e5; firefly Hh reporter signal, replicate 2: 1.04e5; Renilla reference signal, replicate 1: 3665; Renilla reference signal, replicate 2: 7946

For CG5618 [DRSC11780], what was measured?
firefly Hh reporter signal, replicate 1: 1.22e5; firefly Hh reporter signal, replicate 2: 72491; Renilla reference signal, replicate 1: 5316; Renilla reference signal, replicate 2: 2856

Which result is listed for Hel89B (Helicase 89B) [DRSC16700]?
firefly Hh reporter signal, replicate 1: 1.90e5; firefly Hh reporter signal, replicate 2: 8.45e5; firefly Hh reporter signal, replicate 3: 1.16e5; Renilla reference signal, replicate 1: 7521; Renilla reference signal, replicate 2: 47091

How did the screen score Cyp9f2 (Cytochrome P450 9f2) [DRSC16635]?
firefly Hh reporter signal, replicate 1: 1.59e5; firefly Hh reporter signal, replicate 2: 90624; Renilla reference signal, replicate 1: 6145; Renilla reference signal, replicate 2: 3680

With alpha-Est6 (alpha-Esterase-6) [DRSC12618], what was measured?
firefly Hh reporter signal, replicate 1: 1.04e5; firefly Hh reporter signal, replicate 2: 97385; Renilla reference signal, replicate 1: 4342; Renilla reference signal, replicate 2: 4092

2 neighbouring entries already listed, for reference:
Hel89B (Helicase 89B) [DRSC16700] → firefly Hh reporter signal, replicate 1: 1.90e5; firefly Hh reporter signal, replicate 2: 8.45e5; firefly Hh reporter signal, replicate 3: 1.16e5; Renilla reference signal, replicate 1: 7521; Renilla reference signal, replicate 2: 47091
Cyp9f2 (Cytochrome P450 9f2) [DRSC16635] → firefly Hh reporter signal, replicate 1: 1.59e5; firefly Hh reporter signal, replicate 2: 90624; Renilla reference signal, replicate 1: 6145; Renilla reference signal, replicate 2: 3680

Continued.
Which result is listed for CG2938 [DRSC18243]?
firefly Hh reporter signal, replicate 1: 2.12e5; firefly Hh reporter signal, replicate 2: 1.34e5; Renilla reference signal, replicate 1: 4224; Renilla reference signal, replicate 2: 4106

For zyd (zydeco) [DRSC20716], what was measured?
firefly Hh reporter signal, replicate 1: 1.04e5; firefly Hh reporter signal, replicate 2: 1.91e5; Renilla reference signal, replicate 1: 4272; Renilla reference signal, replicate 2: 8594

What did the screen give for Ent2 (Equilibrative nucleoside transporter 2) [DRSC02124]?
firefly Hh reporter signal, replicate 1: 87732; firefly Hh reporter signal, replicate 2: 85616; Renilla reference signal, replicate 1: 3170; Renilla reference signal, replicate 2: 2480

For COX1 (retired record) [DRSC21275], how do the results read?
firefly Hh reporter signal, replicate 1: 48355; firefly Hh reporter signal, replicate 2: 1.64e5; Renilla reference signal, replicate 1: 1191; Renilla reference signal, replicate 2: 6457

Which result is listed for CG4324 [DRSC04462]?
firefly Hh reporter signal, replicate 1: 74181; firefly Hh reporter signal, replicate 2: 67945; Renilla reference signal, replicate 1: 1783; Renilla reference signal, replicate 2: 5645
